Laboratory results reported in article PMC8980266.
These are yes or no findings as the source states them, for the method shown. In cells and extracts the contact can be indirect. Some binding calls cover weakened binding; strength is not graded here. Sequences can lack the tags named with a protein.

Chains of the proteins cited; added tags and fusions are not shown. Residues count along the entry.
UniProt Q91ZX7, residues 20-4545: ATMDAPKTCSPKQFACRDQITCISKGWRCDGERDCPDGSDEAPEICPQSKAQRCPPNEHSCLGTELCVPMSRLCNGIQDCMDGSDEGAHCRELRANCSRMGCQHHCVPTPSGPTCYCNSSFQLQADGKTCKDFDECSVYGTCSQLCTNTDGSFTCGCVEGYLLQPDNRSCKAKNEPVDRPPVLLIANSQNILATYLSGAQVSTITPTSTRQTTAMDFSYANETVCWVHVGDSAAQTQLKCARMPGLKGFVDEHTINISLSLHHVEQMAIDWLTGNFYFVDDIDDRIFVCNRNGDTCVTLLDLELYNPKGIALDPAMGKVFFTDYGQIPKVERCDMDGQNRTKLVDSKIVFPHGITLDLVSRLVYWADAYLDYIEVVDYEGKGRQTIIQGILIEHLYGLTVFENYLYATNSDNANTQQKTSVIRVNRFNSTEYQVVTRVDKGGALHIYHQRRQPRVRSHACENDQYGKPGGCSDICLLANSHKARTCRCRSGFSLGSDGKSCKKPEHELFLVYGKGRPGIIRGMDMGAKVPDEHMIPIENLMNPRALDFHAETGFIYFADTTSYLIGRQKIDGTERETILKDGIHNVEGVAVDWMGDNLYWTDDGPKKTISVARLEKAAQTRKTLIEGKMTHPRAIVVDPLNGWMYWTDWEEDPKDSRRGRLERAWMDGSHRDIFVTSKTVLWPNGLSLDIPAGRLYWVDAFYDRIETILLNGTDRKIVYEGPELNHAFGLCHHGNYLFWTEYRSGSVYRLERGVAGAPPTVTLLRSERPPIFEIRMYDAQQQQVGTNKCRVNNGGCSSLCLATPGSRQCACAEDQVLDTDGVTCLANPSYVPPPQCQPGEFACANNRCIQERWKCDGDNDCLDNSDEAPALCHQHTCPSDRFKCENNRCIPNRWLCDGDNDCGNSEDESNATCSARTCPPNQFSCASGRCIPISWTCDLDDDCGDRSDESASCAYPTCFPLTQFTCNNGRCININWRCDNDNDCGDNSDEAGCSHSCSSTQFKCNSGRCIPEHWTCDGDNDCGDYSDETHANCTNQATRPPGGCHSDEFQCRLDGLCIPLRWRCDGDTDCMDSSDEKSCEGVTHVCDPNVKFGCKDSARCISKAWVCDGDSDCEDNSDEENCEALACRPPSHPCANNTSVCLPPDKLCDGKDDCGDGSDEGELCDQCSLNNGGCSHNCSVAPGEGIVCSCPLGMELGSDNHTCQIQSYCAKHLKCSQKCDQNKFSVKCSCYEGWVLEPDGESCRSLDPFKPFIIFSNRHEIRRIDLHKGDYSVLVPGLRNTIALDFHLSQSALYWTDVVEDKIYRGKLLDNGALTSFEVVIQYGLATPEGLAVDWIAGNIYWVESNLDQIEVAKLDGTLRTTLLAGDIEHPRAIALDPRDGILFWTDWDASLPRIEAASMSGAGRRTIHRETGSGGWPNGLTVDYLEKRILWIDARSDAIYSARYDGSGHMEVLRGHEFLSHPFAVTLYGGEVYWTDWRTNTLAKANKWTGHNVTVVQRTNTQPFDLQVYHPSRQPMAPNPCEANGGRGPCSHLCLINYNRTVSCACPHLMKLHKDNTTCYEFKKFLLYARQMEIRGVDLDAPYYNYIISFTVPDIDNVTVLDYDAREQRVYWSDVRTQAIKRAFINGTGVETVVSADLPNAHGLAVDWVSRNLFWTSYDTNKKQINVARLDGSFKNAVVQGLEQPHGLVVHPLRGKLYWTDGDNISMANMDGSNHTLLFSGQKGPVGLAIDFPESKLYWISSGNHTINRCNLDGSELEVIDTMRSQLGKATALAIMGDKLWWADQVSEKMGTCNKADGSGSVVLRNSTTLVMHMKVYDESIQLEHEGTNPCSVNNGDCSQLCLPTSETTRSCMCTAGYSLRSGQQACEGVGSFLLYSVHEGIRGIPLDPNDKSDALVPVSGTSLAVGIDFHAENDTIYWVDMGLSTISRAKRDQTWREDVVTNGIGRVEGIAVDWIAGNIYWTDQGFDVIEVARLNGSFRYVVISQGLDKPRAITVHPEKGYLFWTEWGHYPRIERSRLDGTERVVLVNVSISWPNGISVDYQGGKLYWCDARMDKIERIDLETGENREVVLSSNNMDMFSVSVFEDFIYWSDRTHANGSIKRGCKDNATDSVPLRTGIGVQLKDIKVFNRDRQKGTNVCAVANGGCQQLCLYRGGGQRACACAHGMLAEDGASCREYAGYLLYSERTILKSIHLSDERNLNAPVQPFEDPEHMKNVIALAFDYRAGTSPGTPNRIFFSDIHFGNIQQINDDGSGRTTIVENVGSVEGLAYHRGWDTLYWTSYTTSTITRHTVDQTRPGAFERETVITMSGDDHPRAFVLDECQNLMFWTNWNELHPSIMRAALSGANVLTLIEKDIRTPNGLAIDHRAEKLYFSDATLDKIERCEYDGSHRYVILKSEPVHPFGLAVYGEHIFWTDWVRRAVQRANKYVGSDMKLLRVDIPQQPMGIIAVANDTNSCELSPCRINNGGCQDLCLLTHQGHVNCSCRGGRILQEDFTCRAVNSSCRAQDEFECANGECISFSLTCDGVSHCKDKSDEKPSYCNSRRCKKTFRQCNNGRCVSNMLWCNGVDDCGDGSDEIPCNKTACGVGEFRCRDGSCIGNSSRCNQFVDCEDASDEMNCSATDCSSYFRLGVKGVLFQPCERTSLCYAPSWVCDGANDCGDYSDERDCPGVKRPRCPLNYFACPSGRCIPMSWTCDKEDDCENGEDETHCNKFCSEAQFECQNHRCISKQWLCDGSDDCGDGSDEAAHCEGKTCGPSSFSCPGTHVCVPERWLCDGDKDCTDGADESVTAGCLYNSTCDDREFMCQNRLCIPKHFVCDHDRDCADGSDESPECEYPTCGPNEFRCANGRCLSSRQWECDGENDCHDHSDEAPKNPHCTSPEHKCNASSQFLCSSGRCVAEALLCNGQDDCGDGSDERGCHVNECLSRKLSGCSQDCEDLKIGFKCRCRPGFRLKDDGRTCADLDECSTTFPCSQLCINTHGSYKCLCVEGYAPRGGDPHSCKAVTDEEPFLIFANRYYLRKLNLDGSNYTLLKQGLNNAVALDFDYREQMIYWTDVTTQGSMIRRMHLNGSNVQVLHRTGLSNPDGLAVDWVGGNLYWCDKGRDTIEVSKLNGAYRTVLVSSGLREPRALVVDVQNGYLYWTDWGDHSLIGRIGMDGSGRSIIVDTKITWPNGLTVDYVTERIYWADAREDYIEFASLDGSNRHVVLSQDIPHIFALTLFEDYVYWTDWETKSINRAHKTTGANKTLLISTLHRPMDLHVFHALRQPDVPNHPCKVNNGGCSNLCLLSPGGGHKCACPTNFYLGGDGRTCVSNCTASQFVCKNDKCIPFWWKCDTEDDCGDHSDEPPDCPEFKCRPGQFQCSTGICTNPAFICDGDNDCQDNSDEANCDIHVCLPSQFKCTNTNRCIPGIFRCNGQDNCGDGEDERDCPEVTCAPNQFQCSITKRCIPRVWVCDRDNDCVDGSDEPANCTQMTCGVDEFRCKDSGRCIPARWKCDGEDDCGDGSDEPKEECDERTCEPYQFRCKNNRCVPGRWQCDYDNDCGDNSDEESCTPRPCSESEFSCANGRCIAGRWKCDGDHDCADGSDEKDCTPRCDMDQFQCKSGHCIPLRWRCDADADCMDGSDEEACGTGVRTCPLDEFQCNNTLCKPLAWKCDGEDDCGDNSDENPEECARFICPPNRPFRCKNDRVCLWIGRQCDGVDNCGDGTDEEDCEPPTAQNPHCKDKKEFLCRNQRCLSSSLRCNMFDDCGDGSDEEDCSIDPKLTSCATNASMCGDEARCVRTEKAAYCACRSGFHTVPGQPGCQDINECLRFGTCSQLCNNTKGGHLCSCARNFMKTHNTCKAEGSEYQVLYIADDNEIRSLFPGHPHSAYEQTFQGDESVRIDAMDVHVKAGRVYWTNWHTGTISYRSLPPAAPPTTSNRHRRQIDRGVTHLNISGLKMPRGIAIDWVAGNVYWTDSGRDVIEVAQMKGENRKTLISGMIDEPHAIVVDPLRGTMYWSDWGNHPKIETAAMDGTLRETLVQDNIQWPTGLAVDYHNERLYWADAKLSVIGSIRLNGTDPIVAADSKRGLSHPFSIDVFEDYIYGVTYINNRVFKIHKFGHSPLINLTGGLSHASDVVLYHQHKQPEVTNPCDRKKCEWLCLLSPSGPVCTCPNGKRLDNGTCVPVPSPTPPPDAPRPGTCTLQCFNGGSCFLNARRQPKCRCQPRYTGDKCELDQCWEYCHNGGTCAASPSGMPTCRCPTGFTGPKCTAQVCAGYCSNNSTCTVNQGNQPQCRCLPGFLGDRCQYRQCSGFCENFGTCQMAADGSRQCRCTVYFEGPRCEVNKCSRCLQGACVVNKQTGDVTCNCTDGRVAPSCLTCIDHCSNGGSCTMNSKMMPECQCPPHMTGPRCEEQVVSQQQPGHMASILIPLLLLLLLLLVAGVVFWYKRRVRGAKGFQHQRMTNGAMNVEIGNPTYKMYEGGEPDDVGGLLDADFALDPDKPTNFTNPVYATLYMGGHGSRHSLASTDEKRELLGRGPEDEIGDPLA

T1: FLAG-Rab43 (Ras-related GTP-binding protein 43, from plasmid pcDNA3.1-3xflag-Rab43) (UniProt Q8CG50)
T1 sequence: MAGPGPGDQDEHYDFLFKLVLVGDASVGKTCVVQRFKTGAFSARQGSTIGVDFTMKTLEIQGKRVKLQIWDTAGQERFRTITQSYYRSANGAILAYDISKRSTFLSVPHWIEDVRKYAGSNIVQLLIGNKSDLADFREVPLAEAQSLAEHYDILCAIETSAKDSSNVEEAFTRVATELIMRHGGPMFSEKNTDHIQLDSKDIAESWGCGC


Tests used:
[1] = molecular target: T1, FLAG-Rab43 (Ras-related GTP-binding protein 43, from plasmid pcDNA3.1-3xflag-Rab43); experiment: co-IP; lysate (M-PER reagent) of RAW264.7 cells transfected with pcDNA3.1-3xflag-Rab43 for 48 h; anti-FLAG antibody (1:50) overnight, protein A/G agarose beads 3 h at 4°C; immunoblot with anti-CD91 antibody
[2] = molecular target: cluster of differentiation 91 (CD91), LDL receptor-related protein 1 (mouse (endogenous in RAW264.7)) (UniProt Q91ZX7); experiment: co-IP; lysate of RAW264.7 cells transfected with pcDNA3.1-GFP-Rab43; immunoprecipitated with anti-CD91 antibody, immunoblot with anti-GFP antibody

| binding [1] | binding [2] | Molecule |
| --- | --- | --- |
| binds |  | cluster of differentiation 91 (CD91), LDL receptor-related protein 1 (from UniProt Q91ZX7 20-4545) |
|  | binds | GFP-Rab43 (from plasmid pcDNA3.1-GFP-Rab43) (protein, UniProt Q8CG50 1-210) MAGPGPGDQDEHYDFLFKLVLVGDASVGKTCVVQRFKTGAFSARQGSTIGVDFTMKTLEIQGKRVKLQIWDTAGQERFRTITQSYYRSANGAILAYDISKRSTFLSVPHWIEDVRKYAGSNIVQLLIGNKSDLADFREVPLAEAQSLAEHYDILCAIETSAKDSSNVEEAFTRVATELIMRHGGPMFSEKNTDHIQLDSKDIAESWGCGC |
